{
  "sequences": {"note": "Protein sequences, listed by entry. Tags and fused reporters are not part of them.", "UniProt Q62205": "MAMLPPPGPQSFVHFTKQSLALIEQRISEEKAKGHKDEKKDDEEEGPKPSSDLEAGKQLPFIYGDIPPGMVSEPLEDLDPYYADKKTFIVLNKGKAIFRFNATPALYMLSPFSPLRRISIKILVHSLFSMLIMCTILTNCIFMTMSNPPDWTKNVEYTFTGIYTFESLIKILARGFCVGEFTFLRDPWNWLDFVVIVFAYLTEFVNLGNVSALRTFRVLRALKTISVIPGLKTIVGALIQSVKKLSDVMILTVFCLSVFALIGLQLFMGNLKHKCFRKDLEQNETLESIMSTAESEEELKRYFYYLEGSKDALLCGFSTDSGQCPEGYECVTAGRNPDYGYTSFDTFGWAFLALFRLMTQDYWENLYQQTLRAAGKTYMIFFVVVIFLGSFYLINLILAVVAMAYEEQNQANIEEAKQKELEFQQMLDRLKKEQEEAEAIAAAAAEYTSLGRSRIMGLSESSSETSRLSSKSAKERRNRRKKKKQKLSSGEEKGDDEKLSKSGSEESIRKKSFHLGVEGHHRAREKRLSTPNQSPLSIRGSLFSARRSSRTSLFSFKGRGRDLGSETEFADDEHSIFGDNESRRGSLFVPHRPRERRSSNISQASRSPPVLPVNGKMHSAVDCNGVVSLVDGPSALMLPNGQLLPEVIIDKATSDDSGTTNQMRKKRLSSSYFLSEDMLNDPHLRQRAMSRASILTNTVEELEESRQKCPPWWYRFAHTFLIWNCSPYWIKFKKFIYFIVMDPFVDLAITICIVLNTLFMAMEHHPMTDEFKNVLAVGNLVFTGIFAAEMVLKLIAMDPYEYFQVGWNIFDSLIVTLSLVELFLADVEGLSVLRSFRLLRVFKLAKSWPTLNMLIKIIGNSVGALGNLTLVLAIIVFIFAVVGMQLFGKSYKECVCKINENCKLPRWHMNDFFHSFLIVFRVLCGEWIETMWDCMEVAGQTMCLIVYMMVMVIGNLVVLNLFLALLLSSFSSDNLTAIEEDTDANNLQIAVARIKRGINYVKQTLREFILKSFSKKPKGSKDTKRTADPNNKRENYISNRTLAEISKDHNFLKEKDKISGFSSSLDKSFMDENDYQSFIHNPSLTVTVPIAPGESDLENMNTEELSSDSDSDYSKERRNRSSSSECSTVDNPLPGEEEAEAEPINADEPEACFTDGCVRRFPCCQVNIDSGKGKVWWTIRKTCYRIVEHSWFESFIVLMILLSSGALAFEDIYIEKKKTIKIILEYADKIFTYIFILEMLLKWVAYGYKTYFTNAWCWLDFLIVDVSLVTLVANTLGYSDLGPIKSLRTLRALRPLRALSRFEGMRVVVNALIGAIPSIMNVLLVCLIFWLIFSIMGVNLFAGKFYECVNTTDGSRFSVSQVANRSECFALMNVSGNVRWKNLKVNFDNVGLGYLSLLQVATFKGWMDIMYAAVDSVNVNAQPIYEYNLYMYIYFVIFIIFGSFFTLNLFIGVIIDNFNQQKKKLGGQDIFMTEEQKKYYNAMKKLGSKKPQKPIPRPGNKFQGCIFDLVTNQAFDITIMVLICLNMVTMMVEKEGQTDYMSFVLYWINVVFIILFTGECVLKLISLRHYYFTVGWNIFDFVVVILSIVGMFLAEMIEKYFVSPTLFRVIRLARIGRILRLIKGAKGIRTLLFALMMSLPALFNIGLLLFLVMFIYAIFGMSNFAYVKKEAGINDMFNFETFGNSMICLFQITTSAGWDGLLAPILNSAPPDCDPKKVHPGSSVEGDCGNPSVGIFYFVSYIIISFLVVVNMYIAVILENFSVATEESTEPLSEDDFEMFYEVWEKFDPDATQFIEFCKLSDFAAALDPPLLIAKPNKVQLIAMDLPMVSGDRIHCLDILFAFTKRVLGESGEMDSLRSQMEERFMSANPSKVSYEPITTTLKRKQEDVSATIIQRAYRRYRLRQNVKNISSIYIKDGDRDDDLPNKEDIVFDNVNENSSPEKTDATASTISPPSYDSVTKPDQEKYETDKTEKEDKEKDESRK"},
  "source": "paper doi:10.1101/117952",
  "binders": {"B1": {"name": "Gprin1 (protein, UniProt Q3UNH4 1-932)", "chain": "MRDCCSSPKAIPAPPRHALDQSLGMDPRHTSSSGAAEGASCSERPAGSLACPSPNCSPLPETPRAHGALTSDNSGTTLFGKPEPMSSAEATPTASEIRNPVFSGKMDGNSLKQADSTSTRKEEAGSLRNEESMLKGKAEPMIYGKGEPGTVGRVDCTASGAENSGSLGKVDMPCSSKVDIVSPGGDNAGSLRKVETISSGKMDPKTENVMHSRRERPGSTGEGDLVSLRENDMKPPDNTDSASTKKTDPEFSGKLTPGSSGKTELVSSVTVAPVTSENVNPVCSGGAGPAAVGNSETLSSVKKDPQLLGKKEAVSSGEGGSVSVRMAETVSARQPEGMFPAKTDSTSSNSTGPSGRADPVSLRNSELVSPVKPERLSSGQAERVSLVKTETLSSGKEDPRSSRRVDHTTVTGNMQTSQKGNPESSGKTDLGSSSSGDTRSLGTWGSLSAAKAEVTEGKGDPQPWKKASLPASEKTDPLASSKAGSASQGKAETVSPGEVDAMTLGKTVPTSSGKTALVSPGKVDLMTSERAEGIPELQASEKGNPVNSTRVDTGATGSTEPKSGVKVITQIPGATSPGKVETPSLQKEQPQLSEKTDPSRKVDPPTTVEPVSLGKADSASPSPRKAESQTSAKTVPQAPDKATSSLRQSDGTPYSSAQPQRDTRSIGSLPEREPSASTSQKDLAAAAAQKSPSAEAAAPPPGPRTRDNFTKAPSWDAGAPPPREDAGTQAGAQACVSVAVSPMSPQDGAGGPAFSFQAAPRAPSPAPRPPSRRDAGLQVSLGAAETRSVATGPMTPQAAAPPAVPPVFPEVRVRPGSVLAAALAPQEATEPVRDVSWDEKGMTWEVYGASMEVEVLGMAIQKHLERQIEEHGRQGAPAPAPPPAVRAGPGRAGSVRTAPAEGAAKRPPGLFRALLQSVRRPRCCSRAGPTAE"}},
  "molecular_target": "Epitope-tagged Nav1.7 (voltage-gated sodium channel Nav1.7, TAP-tagged) (mouse) (UniProt Q62205)",
  "experiment": "co-IP",
  "note": "Results are given in words; binding and its absence hold for the method and conditions named. Binding seen in cells or lysates may run through a third protein. Some binding calls cover weakened binding; strength is not graded here.",
  "data": [
    {"binder": "B1", "values": [
      {"measurement": "binding", "result": "binds"}
    ]}
  ]
}
